Laboratory results as given in the supplement of paper PMC7666118.
This is one part of the list.

Protein sequences, listed by entry. Tags and fused reporters are not part of them. Lines headed by an entry give the natural chain unless they say otherwise; changes in a name come on top.
UniProt Q9H3H1: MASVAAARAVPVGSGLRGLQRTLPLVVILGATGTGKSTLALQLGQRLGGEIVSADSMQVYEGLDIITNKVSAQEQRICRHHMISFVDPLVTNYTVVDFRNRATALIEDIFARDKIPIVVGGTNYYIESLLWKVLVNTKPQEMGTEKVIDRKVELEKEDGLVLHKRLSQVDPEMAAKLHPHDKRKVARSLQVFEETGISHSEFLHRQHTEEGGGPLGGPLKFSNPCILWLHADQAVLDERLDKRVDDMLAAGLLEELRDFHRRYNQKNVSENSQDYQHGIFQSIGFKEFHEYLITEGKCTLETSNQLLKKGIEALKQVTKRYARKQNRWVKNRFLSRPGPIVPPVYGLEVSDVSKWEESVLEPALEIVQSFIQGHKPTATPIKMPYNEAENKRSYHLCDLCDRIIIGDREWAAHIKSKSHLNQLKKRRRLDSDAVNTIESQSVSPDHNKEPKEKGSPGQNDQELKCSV
UniProt Q16222: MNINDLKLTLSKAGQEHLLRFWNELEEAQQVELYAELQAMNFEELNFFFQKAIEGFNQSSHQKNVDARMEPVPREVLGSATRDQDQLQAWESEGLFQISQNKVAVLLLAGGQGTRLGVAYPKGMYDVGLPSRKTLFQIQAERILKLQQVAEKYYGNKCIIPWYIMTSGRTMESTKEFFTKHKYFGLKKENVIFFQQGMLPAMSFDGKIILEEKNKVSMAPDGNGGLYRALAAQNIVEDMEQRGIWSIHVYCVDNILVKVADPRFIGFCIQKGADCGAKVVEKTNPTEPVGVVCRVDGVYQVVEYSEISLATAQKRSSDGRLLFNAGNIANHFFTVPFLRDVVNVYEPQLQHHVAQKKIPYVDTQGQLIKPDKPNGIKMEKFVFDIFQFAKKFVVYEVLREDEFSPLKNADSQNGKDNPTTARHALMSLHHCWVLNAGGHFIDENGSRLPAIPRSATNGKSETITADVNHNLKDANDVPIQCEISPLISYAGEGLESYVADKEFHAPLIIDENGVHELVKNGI
UniProt Q9UPN9: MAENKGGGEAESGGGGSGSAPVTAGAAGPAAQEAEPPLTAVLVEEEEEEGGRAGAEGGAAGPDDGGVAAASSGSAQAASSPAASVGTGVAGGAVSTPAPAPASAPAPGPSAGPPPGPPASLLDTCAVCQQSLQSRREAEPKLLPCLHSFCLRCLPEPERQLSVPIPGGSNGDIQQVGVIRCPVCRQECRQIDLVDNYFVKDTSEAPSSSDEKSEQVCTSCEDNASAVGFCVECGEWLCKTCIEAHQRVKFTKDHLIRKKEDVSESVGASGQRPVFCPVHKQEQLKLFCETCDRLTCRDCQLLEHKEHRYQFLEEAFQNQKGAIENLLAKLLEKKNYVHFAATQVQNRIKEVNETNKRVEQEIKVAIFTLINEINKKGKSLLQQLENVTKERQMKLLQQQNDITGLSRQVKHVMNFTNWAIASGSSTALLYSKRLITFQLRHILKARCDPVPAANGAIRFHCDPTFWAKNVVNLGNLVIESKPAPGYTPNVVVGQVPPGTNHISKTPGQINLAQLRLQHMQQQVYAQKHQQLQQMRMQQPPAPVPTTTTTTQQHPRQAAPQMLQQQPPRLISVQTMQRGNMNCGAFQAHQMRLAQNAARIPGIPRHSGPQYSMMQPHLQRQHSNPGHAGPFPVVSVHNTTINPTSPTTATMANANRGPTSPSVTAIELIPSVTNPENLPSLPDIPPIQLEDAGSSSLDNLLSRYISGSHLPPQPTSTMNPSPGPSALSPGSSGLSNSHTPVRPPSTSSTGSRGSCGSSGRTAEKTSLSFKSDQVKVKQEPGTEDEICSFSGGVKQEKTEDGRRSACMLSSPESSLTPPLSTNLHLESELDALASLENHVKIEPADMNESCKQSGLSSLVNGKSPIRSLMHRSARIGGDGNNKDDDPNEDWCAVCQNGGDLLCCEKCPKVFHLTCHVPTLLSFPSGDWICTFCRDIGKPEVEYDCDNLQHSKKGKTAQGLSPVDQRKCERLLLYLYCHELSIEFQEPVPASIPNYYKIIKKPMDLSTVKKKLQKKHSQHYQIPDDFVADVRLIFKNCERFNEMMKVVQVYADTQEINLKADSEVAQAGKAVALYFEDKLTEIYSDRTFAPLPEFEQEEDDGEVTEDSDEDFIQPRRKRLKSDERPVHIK
UniProt Q969E8: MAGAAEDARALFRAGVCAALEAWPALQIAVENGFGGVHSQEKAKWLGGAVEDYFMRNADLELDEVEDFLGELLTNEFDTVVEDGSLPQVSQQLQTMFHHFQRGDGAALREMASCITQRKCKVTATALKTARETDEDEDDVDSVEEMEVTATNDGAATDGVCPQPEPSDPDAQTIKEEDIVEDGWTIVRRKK
UniProt P04818: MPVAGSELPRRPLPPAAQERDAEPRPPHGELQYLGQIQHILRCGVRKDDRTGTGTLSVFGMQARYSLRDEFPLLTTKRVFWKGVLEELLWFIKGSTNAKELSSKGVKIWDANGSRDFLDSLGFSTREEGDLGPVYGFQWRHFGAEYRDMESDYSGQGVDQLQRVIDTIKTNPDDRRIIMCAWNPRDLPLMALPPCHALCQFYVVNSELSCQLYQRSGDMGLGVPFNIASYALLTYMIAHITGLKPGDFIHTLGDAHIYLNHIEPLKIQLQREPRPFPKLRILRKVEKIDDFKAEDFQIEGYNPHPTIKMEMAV
UniProt P13051, whole entry: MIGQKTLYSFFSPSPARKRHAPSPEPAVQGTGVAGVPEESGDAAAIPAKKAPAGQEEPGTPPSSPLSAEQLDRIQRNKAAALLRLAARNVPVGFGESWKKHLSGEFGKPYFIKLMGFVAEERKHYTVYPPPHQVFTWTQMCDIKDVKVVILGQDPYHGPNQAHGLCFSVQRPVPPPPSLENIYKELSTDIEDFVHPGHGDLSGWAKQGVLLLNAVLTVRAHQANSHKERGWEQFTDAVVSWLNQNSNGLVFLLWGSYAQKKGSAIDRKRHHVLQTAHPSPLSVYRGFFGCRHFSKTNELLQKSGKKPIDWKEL
UniProt Q9C0H2: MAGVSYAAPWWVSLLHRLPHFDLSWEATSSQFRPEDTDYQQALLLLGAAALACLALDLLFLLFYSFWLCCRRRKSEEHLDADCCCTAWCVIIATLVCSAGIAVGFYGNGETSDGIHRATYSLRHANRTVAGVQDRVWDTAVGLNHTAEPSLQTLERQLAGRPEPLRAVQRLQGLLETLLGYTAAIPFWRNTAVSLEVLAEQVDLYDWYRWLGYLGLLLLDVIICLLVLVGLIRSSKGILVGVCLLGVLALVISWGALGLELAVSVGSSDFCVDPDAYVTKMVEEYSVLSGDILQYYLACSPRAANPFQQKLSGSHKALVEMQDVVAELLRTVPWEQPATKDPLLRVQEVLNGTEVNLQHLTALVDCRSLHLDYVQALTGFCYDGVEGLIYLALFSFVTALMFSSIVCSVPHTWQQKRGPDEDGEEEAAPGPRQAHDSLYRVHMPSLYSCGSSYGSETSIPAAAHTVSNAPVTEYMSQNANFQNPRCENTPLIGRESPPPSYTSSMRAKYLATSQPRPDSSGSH
UniProt O43617, whole entry: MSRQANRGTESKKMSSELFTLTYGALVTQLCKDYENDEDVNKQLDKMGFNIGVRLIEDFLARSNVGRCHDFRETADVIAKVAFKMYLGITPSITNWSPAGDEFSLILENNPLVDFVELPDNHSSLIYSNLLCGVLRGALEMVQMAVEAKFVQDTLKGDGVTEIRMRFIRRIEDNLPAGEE
UniProt P26368, whole entry: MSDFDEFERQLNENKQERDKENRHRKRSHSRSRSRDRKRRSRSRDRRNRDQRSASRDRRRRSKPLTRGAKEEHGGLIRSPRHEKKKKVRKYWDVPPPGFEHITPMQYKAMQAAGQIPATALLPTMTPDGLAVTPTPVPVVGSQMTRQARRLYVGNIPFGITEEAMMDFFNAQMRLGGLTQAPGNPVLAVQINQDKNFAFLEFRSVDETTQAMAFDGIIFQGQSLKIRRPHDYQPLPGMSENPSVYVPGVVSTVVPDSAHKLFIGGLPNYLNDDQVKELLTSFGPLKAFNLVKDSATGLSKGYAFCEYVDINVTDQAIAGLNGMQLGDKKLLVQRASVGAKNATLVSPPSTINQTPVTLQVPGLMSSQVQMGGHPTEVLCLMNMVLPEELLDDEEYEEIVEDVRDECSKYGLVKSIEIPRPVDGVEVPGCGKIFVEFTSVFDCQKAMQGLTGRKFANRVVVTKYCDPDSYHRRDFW
UniProt Q15645: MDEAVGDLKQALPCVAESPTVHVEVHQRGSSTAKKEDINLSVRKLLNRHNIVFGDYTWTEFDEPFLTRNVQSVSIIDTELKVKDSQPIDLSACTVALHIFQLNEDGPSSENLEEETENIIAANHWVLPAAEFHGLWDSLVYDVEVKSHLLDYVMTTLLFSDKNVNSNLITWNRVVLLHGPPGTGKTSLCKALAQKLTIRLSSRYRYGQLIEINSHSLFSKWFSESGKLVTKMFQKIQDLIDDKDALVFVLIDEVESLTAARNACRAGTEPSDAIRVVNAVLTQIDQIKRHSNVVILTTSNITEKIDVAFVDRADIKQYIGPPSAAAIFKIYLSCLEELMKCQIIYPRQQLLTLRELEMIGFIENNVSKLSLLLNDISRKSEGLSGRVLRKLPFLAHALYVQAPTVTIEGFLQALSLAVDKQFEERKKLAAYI
UniProt Q92995: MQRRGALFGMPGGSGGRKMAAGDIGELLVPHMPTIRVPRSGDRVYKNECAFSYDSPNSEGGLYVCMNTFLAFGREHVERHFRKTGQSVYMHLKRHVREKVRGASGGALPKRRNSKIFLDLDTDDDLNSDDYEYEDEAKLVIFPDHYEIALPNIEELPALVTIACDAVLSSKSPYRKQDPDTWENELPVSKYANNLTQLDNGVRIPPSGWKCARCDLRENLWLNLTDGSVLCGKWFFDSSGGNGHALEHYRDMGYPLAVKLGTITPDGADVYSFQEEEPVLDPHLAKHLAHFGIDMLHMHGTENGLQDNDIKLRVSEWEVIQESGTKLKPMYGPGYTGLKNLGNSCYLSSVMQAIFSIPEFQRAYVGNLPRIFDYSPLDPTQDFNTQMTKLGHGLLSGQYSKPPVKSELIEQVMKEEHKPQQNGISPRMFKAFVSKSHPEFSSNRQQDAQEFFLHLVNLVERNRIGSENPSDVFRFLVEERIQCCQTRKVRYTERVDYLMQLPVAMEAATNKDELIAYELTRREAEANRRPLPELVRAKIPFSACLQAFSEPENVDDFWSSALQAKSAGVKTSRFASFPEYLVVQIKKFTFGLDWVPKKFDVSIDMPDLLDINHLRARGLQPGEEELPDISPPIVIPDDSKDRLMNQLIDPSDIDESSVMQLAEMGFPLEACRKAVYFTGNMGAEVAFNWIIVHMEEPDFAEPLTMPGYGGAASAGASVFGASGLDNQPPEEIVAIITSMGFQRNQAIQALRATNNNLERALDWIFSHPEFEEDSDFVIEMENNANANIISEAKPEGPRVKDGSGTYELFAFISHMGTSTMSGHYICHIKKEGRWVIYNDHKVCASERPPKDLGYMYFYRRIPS
UniProt Q92900: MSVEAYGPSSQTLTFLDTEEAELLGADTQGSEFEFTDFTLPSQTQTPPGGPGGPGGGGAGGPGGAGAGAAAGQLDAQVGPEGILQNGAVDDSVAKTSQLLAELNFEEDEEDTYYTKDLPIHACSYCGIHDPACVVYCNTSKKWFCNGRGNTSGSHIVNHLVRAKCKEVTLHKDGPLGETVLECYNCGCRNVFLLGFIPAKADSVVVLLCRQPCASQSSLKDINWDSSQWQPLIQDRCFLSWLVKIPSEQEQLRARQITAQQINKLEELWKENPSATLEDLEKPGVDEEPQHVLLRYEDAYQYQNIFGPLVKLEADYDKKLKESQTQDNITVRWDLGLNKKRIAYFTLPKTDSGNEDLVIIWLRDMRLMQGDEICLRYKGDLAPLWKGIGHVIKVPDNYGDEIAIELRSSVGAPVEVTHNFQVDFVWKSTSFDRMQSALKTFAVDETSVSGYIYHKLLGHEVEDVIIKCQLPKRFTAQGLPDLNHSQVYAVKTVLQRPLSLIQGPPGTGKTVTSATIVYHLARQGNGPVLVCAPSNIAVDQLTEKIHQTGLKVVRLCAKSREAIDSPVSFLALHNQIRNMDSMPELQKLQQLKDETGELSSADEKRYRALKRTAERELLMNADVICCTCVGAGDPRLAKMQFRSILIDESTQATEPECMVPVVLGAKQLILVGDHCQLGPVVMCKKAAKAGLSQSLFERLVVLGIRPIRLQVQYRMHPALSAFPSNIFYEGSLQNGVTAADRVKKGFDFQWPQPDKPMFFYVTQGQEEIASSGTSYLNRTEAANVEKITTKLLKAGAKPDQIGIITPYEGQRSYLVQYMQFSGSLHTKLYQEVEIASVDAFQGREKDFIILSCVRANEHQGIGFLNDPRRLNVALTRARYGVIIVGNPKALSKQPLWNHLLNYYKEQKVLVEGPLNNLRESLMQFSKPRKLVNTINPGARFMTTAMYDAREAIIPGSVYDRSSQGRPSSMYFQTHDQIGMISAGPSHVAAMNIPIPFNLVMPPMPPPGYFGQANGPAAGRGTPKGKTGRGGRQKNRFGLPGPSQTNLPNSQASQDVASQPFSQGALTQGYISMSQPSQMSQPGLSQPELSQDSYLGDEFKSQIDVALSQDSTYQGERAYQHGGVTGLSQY

Compound: COc1ccc(Cn2ccc3ccc(C(=O)NO)cc32)cc1
Assay: dose-dependent thermal stabilisation call (2D-TPP, DLPTP, 10% FDR) (binary (1 = stabilised)); higher = stabilised by the compound
Details: system: HL-60 intact cells; concentration range 0.04-10 µM

| Target | dose-dependent thermal stabilisation call |
| --- | --- |
| UQCRB (UniProt P14927) | inactive: 0 |
| TTC33 (UniProt Q6PID6) | inactive: 0 |
| TRIT1 (UniProt Q9H3H1) | inactive: 0 |
| UBE2D2 (UniProt P62837) | inactive: 0 |
| UAP1 (UniProt Q16222) | inactive: 0 |
| UBR4 (UniProt Q5T4S7) | inactive: 0 |
| USO1 (UniProt O60763) | inactive: 0 |
| TXNDC14 (UniProt Q9Y320) | inactive: 0 |
| TRAPPC1 (UniProt Q9Y5R8) | inactive: 0 |
| TRIM33 (UniProt Q9UPN9) | inactive: 0 |
| UBR1 (UniProt Q8IWV7) | inactive: 0 |
| TSR2 (UniProt Q969E8) | inactive: 0 |
| TYMS (UniProt P04818) | inactive: 0 |
| UBA2 (UniProt Q9UBT2) | inactive: 0 |
| UNC13D (UniProt Q70J99) | inactive: 0 |
| UNG (UniProt P13051) | inactive: 0 |
| TRIM21 (UniProt P19474) | inactive: 0 |
| TTYH3 (UniProt Q9C0H2) | inactive: 0 |
| USP46 (UniProt P62068) | inactive: 0 |

| Target | dose-dependent thermal stabilisation call |
| --- | --- |
| TTPAL (UniProt Q9BTX7) | inactive: 0 |
| TRABD (UniProt Q9H4I3) | inactive: 0 |
| TRAPPC3 (UniProt O43617) | inactive: 0 |
| U2AF2 (UniProt P26368) | inactive: 0 |
| UBA5 (UniProt Q9GZZ9) | inactive: 0 |
| UBAC1 (UniProt Q9BSL1) | inactive: 0 |
| TRAF3IP1 (UniProt Q8TDR0) | inactive: 0 |
| TRIM24 (UniProt O15164) | inactive: 0 |
| TRIP13 (UniProt Q15645) | inactive: 0 |
| USP13 (UniProt Q92995) | inactive: 0 |
| UPF1 (UniProt Q92900) | inactive: 0 |
| TRMT5 (UniProt Q32P41) | inactive: 0 |
| URG4 (UniProt Q8TCY9) | inactive: 0 |
| TRAF3IP3 (UniProt Q9Y228) | inactive: 0 |
| UBE2S (UniProt Q16763) | inactive: 0 |
| TXNL4B (UniProt Q9NX01) | inactive: 0 |
| TTC19 (UniProt Q6DKK2) | inactive: 0 |
| UFD1L (UniProt Q92890) | inactive: 0 |

Random excerpt: 3 entries already listed.

| Target | dose-dependent thermal stabilisation call |
| --- | --- |
| TSR2 (UniProt Q969E8) | inactive: 0 |
| UNC13D (UniProt Q70J99) | inactive: 0 |
| TTYH3 (UniProt Q9C0H2) | inactive: 0 |
